Experimental data: PubChem BioAssay AID1259261 (Sanger Institute, 2017)
Shown is an unselected part of 794 reagents. Over the whole deposit, 10 (1.3%) got an active call. 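Calls reflect knock-down alone without drug; synergy scores with BYL719, cetuximab or trametinib do not affect calls.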 Unmarked entries are inactive. No viability above 1 is reported: the scale is capped. Further read-outs or replicates are left out here. Reagent sequences are not shown. Not stated in the record: the amount of reagent, the time to read-out.

Screen: 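Kinase knock-downs that kill colorectal cancer cells or boost targeted drugs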 (primary screen)
System: HCC2998 human colorectal cancer cells
Reagent: siRNA pool against human genes
Challenge: anchor drugs BYL719 1 µM, cetuximab 5 µg/ml or trametinib 10 nM, each compared with DMSO vehicle
Read-out: 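Cell viability relative to non-targeting siRNA, averaged over replicates, with robust z-score for siRNA alone and synergy scores with each anchor drug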
Scale: viability z-score, knock-down alone: higher = more viable cells than controls; viability fraction, knock-down alone: higher = more viable cells; synergy score with BYL719: higher = stronger combined killing with BYL719
Call rule: 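a knock-down is called essential if its robust z-score without drug is under -3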
Calls: active = essential; inactive = no change

target gene	viability z-score, knock-down alone	viability fraction, knock-down alone	synergy score with BYL719
PRKY (GeneID 5616)	-0.213	0.822	-0.052
TGFBR1 (GeneID 7046)	-0.227	0.82	-0.0994
MGA (GeneID 23269)	-0.722	0.758	0.0502
MAP3K4 (GeneID 4216)	-0.566	0.778	-0.096
IGF2R (GeneID 3482)	1.21	1	-0.0132
PRKCE (GeneID 5581)	-0.378	0.801	0.0419
SRPK2 (GeneID 6733)	0.396	0.898	0.0755
PLK3 (GeneID 1263)	0.0794	0.859	-0.0815
CHKB (GeneID 1120)	0.773	0.946	0.034
PAK6 (GeneID 56924)	1.21	1	-0.102
AMER1 (GeneID 139285)	-0.386	0.8	0.032
PRKAA1 (GeneID 5562)	0.136	0.866	-0.0369
KMT2B (GeneID 9757)	-0.332	0.807	-0.0131
RIPK2 (GeneID 8767)	-0.00596	0.848	-0.0359
DIS3 (GeneID 22894)	0.313	0.888	0.0813
PTEN (GeneID 5728)	0.000523	0.849	-0.14
PIK3CG (GeneID 5294)	-0.551	0.78	-0.0378
CNOT1 (GeneID 23019)	-0.928	0.733	-0.0299
ULK1 (GeneID 8408)	1.07	0.983	0.0929
CAMK4 (GeneID 814)	1.21	1	0.0897

Next part, starting with the last 4 of the part before.
target gene	viability z-score, knock-down alone	viability fraction, knock-down alone	synergy score with BYL719
PIK3CG (GeneID 5294)	-0.551	0.78	-0.0378
CNOT1 (GeneID 23019)	-0.928	0.733	-0.0299
ULK1 (GeneID 8408)	1.07	0.983	0.0929
CAMK4 (GeneID 814)	1.21	1	0.0897
CAMK2D (GeneID 817)	1.21	1	-0.109
BMPR1B (GeneID 658)	0.724	0.94	-0.0886
ANKK1 (GeneID 255239)	-1.45	0.667	-0.0566
MAP4K3 (GeneID 8491)	0.621	0.927	0.0275
BMAL1 (GeneID 406)	-1.36	0.678	0.0226
HCK (GeneID 3055)	1.21	1	-0.109
CDK3 (GeneID 1018)	0.672	0.933	-0.0152
BRSK1 (GeneID 84446)	-0.055	0.842	-0.0656
AAK1 (GeneID 22848)	1.21	1	0.169
SCYL1 (GeneID 57410)	1.21	1	-0.109
MSR1 (GeneID 4481)	-1.03	0.719	-0.0522
PIK3CD (GeneID 5293)	0.31	0.888	-0.131
LTK (GeneID 4058)	-0.735	0.757	-0.06
PLK4 (GeneID 10733)	-0.676	0.764	0.0418
IRAK4 (GeneID 51135)	0.718	0.939	-0.0321
FGFR2 (GeneID 2263)	-0.914	0.734	-0.0462
BTK (GeneID 695)	0.324	0.89	-0.017
EPHB1 (GeneID 2047)	-0.213	0.822	-0.0548
NEK8 (GeneID 284086)	-0.669	0.765	-0.0818
CAMK1 (GeneID 8536)	0.117	0.863	0.0428
SMG1 (GeneID 23049)	0.0075	0.85	-0.0619
GOLGA5 (GeneID 9950)	0.906	0.962	-0.101
ATP23 (GeneID 91419)	1.17	0.996	0.0162
TAF1 (GeneID 6872)	-1.73	0.632	-0.0354
MASTL (GeneID 84930)	0.863	0.957	0.146
PRKCSH (GeneID 5589)	0.772	0.946	-0.0642
RBM10 (GeneID 8241)	-3.01 (active)	0.472	-0.029
CSNK1D (GeneID 1453)	-0.565	0.778	-0.082
LATS2 (GeneID 26524)	1.07	0.983	-0.00408
DUSP21 (GeneID 63904)	0.661	0.932	-0.0236
